Measurements taken from PMC4821246.

B1: in vitro translated, radiolabelled Borealin (protein, UniProt Q53HL2 1-280)
chain: MAPRKGSSRVAKTNSLRRRKLASFLKDFDREVEIRIKQIESDRQNLLKEVDNLYNIEILRLPKALREMNWLDYFALGGNKQALEEAATADLDITEINKLTAEAIQTPLKSAKTRKVIQVDEMIVEEEEEEENERKNLQTARVKRCPPSKKRTQSIQGKGKGKRSSRANTVTPAVGRLEVSMVKPTPGLTPRFDSRVFKTPGLRTPAAGERIYNISGNGSPLADSKEIFLTVPVGGGESLRLLASDLQRHSIAQLDPEALGNIKKLSNRLAQICSSIRTHK
modifications: [35S] methionine-labelled
B2: in vitro translated, radiolabelled INCENP N-terminal region (residues 1-261) (domain or fragment, UniProt Q9NQS7 1-261)
chain: MGTTAPGPIHLLELCDQKLMEFLCNMDNKDLVWLEEIQEEAERMFTREFSKEPELMPKTPSQKNRRKKRRISYVQDENRDPIRRRLSRRKSRSSQLSSRRLRSKDSVEKLATVVGENGSVLRRVTRAAAAAAAATMALAAPSSPTPESPTMLTKKPEDNHTQCQLVPVVEIGISERQNAEQHVTQLMSTEPLPRTLSPTPASATAPTSQGIPTSDEESTPKKSKARILESITVSSLMATPQDPKGQGVGTGRSASKLRIAQ
modifications: [35S] methionine-labelled
B3: in vitro translated, radiolabelled INCENP central region (residues 262-524) (domain or fragment, UniProt Q9NQS7 262-524)
chain: VSPGPRDSPAFPDSPWRERVLAPILPDNFSTPTGSRTDSQSVRHSPIAPSSPSPQVLAQKYSLVAKQESVVRRASRRLAKKTAEEPAASGRIICHSYLERLLNVEVPQKVGSEQKEPPEEAEPVAAAEPEVPENNGNNSWPHNDTEIANSTPNPKPAASSPETPSAGQQEAKTDQADGPREPPQSARRKRSYKQAVSELDEEQHLEDEELQPPRSKTPSSPCPASKVVRPLRTFLHTVQRNQMLMTPTSAPRSVMKSFIKRNT
modifications: [35S] methionine-labelled

The binders below were run against GST::CIT-K kinase domain fragment (human) (assay: pull-down; GST::CIT-K fragments purified from E. coli on glutathione beads, incubated with in vitro translated [35S]-labelled CPC polypeptides; binding at 150 mM NaCl, washes from 150 mM to 1 M NaCl; autoradiography; only the target purified).

| Binder | binding |
| --- | --- |
| B1 | binds weakly |
| B2 | binds weakly |
| B3 | no binding |

No constants are given. Whether binding was seen depends on the method and setting. In cells and extracts the contact can be indirect. Binding calls can cover weak binding; strength is not graded here.
